Measured values as given in paper PMC10652021.
Results are given in words; binding and its absence hold for the method and conditions named. Binding seen in cells or lysates may run through a third protein. Some entries that bind do so weakly or less than the wild type.

By UniProt entry, the sequences of proteins in these tests, tags left out.
UniProt P38432: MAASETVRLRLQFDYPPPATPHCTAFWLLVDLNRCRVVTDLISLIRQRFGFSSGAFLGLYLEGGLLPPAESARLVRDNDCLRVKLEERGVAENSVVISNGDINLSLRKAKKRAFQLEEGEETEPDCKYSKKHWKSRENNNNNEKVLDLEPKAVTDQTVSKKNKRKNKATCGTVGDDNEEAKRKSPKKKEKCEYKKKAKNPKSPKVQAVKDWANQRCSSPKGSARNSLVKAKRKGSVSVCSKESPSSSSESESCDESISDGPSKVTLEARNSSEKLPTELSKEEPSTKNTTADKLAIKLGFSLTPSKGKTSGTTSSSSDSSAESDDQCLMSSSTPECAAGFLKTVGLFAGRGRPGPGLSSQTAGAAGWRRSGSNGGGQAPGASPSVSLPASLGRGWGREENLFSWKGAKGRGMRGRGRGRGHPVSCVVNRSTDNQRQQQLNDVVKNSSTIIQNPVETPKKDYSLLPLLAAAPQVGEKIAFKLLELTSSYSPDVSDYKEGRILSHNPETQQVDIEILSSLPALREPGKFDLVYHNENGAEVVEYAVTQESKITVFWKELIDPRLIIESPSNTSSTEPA
UniProt Q16637: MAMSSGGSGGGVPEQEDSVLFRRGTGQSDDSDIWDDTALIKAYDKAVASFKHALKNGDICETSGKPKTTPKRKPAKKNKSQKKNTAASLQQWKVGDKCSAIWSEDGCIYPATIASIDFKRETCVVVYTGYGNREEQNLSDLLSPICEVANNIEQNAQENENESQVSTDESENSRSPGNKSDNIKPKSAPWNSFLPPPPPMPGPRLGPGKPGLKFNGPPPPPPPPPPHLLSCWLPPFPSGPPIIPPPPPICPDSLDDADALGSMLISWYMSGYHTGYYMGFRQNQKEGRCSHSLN

Tests used:
[1] = target: Coilin (human (endogenous in MRC5-SV)) (UniProt P38432); assay: condition: only after UV-C irradiation, during nucleolar reorganization, wild-type cells; proximity ligation; Duolink PLA of SMN and Coilin on fixed wild-type cells at different times after UV-C irradiation (damage-induced nucleolar reorganization)
[2] = target: T1, Fibrillarin (human (endogenous in MRC5-SV)) (UniProt P22087); assay: condition: only in Coilin-depleted cells (siCoilin pool); proximity ligation; Duolink PLA of SMN and FBL on fixed cells depleted of Coilin (siCoilin pool), before and at different times after UV-C
T1 sequence: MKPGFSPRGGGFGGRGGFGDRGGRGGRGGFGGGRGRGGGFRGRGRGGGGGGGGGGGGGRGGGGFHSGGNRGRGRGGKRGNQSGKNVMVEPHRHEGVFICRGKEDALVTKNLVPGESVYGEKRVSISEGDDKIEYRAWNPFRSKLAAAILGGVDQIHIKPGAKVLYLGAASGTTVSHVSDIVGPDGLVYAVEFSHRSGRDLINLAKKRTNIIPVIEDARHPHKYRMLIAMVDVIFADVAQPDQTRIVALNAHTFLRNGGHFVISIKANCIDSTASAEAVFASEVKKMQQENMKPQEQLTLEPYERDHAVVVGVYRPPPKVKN

[3] = target: T1, Fibrillarin (human (endogenous in MRC5-SV)); assay: proximity ligation; Duolink PLA on fixed, permeabilised wild-type cells with primary antibodies against the two endogenous proteins; no UV and different times after 16 J/m2 UV-C; cells transfected with siMock, siFBL or siPRMT1 pools
GST-SMN = GST-SMN (UniProt Q16637); assay: pull-down; GST pull-down: GST-SMN (or GST alone, or SMN TUDOR domain mutants) as bait, FBL from cell extracts, untreated or UV-treated at different time points; FBL found by blot; only the target purified

Survival of Motor Neuron (from UniProt Q16637 1-294)
binding [1]: no binding
binding [2]: no binding
binding [3]: binds

B1: Fibrillarin (protein, UniProt P22087 1-321)
chain: MKPGFSPRGGGFGGRGGFGDRGGRGGRGGFGGGRGRGGGFRGRGRGGGGGGGGGGGGGRGGGGFHSGGNRGRGRGGKRGNQSGKNVMVEPHRHEGVFICRGKEDALVTKNLVPGESVYGEKRVSISEGDDKIEYRAWNPFRSKLAAAILGGVDQIHIKPGAKVLYLGAASGTTVSHVSDIVGPDGLVYAVEFSHRSGRDLINLAKKRTNIIPVIEDARHPHKYRMLIAMVDVIFADVAQPDQTRIVALNAHTFLRNGGHFVISIKANCIDSTASAEAVFASEVKKMQQENMKPQEQLTLEPYERDHAVVVGVYRPPPKVKN
binding (GST-SMN): binds
